Data taken from patent US12551536B2, “Semaglutide in medical therapy” (Novo Nordisk A/S, priority 2017, dated 2026).
At least one structure is not confirmed: it was looked up by name or label, or the drawing left a doubt.

How the values were obtained:
[1] = 52-week clinical trial of once-daily semaglutide in obese subjects without diabetes mellitus: change in body weight; format: in vivo, human
Method: This trial was designed as a 52-week, randomised, double-blind, placebo-controlled, sixteen-armed, parallel group, multi-centre, multinational trial comparing once-daily subcutaneous administration of semaglutide in five different doses (ranging from 0.05 mg/day to 0.4 mg/day) with placebo in obese subjects without diabetes mellitus. […] The trial was double-blinded between active and placebo treatment. To ensure a sufficiently large sample of men, no more than 70% of the trial population was allowed to be women and the randomisation was stratified according to sex. Subjects were randomised in a balanced manner (6:1 active:placebo).
The primary endpoint was relative change from baseline in body weight (%) at 52 weeks. Key secondary endpoints included proportion of subjects with weight loss of ≥5% or ≥10% of baseline body weight at 52 weeks as well as change in body weight from baseline to 52 weeks. Supportive secondary safety endpoints also included gastrointestinal (GI) adverse events (i.e. nausea, vomiting, diarrhoea and constipation). During each site visit the individual subject was asked via open questions if they had experienced any medical problems since the last visit. All medical problems either observed by the site staff or the subject was reported as an adverse event and evaluated for severity and causality by the investigator. For this trial the subjects had site visits every 2 weeks for the first 20 weeks of the trial and afterwards site visits was performed every 4 weeks.
Subjects in all treatment arms including placebo received nutritional counselling and a calorie-reduced diet by a dietician or equivalent qualified delegate as well as physical activity counselling by a qualified person on a monthly basis beginning at the randomisation visit. […]
Statistical analyses of effect endpoints: The primary analysis was based on a ‘jump-to-reference’ multiple imputation approach (J2R-MI). […] The primary endpoint was calculated in each complete data set and analysed using an analysis of covariance (ANCOVA) model. […]

[2] = 26-week clinical trial in adult patients with T2D: body weight change; format: in vivo, human; details: on-treatment, estimated data
Method: A 26-week, randomized, double-blind clinical trial was carried out with adult patients with T2D, HbA1c 7.0-10.0% (53-86 mmol/mol), and body mass index 24.0-40.0 kg/m^2 who were treated with diet and exercise±metformin. […] The primary endpoint was change in HbA1c from baseline to week 26. Key exclusion criteria were a history of chronic or idiopathic acute pancreatitis and moderate-to-severe renal impairment (estimated glomerular filtration rate <60 mL/min/1.73 m^2).
Trial drug administration: Following a 2-week screening period, patients received trial medication for 26 weeks, followed by a 7-week follow-up period. […] The trial was double blinded within (but not between) each dose level of semaglutide, liraglutide and placebo, as treatment was volume matched.

[3] = Lira 3.0 mg once daily s.c., observed data

For `CCCCCCCCCCCCCCCC(=O)N[C@@H](CCC(=O)NCCCC[C@H](NC(=O)[C@H](C)NC(=O)[C@H](C)NC(=O)[C@H](CCC(N)=O)NC(=O)CNC(=O)[C@H](CCC(=O)O)NC(=O)[C@H](CC(C)C)NC(=O)[C@H](Cc1ccc(O)cc1)NC(=O)[C@H](CO)NC(=O)[C@H](CO)NC(=O)[C@@H](NC(=O)[C@H](CC(=O)O)NC(=O)[C@H](CO)NC(=O)[C@@H](NC(=O)[C@H](Cc1ccccc1)NC(=O)[C@@H](NC(=O)CNC(=O)[C@H](CCC(=O)O)NC(=O)[C@H](C)NC(=O)[C@@H](N)Cc1cnc[nH]1)[C@@H](C)O)[C@@H](C)O)C(C)C)C(=O)N[C@@H](CCC(=O)O)C(=O)N[C@@H](Cc1ccccc1)C(=O)N[C@H](C(=O)N[C@@H](C)C(=O)N[C@@H](Cc1c[nH]c2ccccc12)C(=O)N[C@@H](CC(C)C)C(=O)N[C@H](C(=O)N[C@@H](CCCNC(=N)N)C(=O)NCC(=O)N[C@@H](CCCNC(=N)N)C(=O)NCC(=O)O)C(C)C)[C@@H](C)CC)C(=O)O` [Lira, liraglutide, reference compound], the “Change in body weight (%) from baseline to week 52, Subjects in-trial, Mean” value [1, 3] was −8.26%, the “Change in body weight (%) from baseline to week 52, Subjects on-treatment, Mean” value [1, 3] was −9.20% and the “Corresponding Sema dose (dosage of semaglutide providing the same body weight reduction as 3.0 mg liraglutide)” value ([1]; Lira 3.0 mg, Emax model, Estimate [95% CI], week 52) was 0.08 [0.06; 0.11] mg. The “Body weight change, mean (kg), baseline to week 26” value (shortened to “Body weight change, mean (kg)”) ([2]; Lira 0.3 mg once daily s.c.) was -1.5 kg, the “Body weight change, mean (kg)” value ([2]; Lira 0.6 mg once daily s.c.) was -1.7 kg and the “Body weight change, mean (kg)” value ([2]; Lira 1.2 mg once daily s.c.) was -1.7 kg. The “Body weight change, mean (kg)” value ([2]; Lira 1.8 mg once daily s.c.) was -3.7 kg.
